According to PubChem BioAssay AID485314 (National Center for Advancing Translational Sciences (NCATS), 2010):
Screen size: about 340,000 compounds; about 4,500 (1.3%) were called active. The inconclusive results got no clear call from the source; some entries with a clear call stand among them for comparison. Calls follow the shape of the dose curve; as a rule, active = well fitted inhibition curve with a large enough effect; inconclusive = small, poorly fitted or top-dose-only effect, or another doubt; inactive = no such curve, though single readings can be large or run the other way. Potencies of inconclusive entries are doubtful fits and often do not repeat.

What follows are compounds tested against DNA polymerase beta (Homo sapiens) (UniProt P06746) (assay: qHTS Assay for Inhibitors of DNA Polymerase Beta). Conditions: Pol beta primer extension/strand displacement, fluorescence kinetic; series mostly up to 114 µM.
Summary of the method: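 Values derive from four-parameter Hill fits of normalized kinetic data: reads at 0 and 10 min following addition of 50 nM substrate to 10 nM Pol beta preincubated 15 min with compound.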
Potency is read from the fitted curve at half-maximal effect.

Potency, inactive:
CC(C)CSc1nnc(-c2ccccc2)c(-c2ccccc2)n1, COc1cc(CNc2ccc(N3CCOCC3)cc2)ccc1OCC(=O)NC(C)(C)C, CC(Sc1nnc(NC2CCCCC2)s1)C(=O)Nc1ccc2c(c1)C(=O)c1ccccc1C2=O (centres undefined), O=C(NC(NNc1ccc([N+](=O)[O-])cc1)(C(F)(F)F)C(F)(F)F)c1ccc(F)cc1, COc1cccc(-c2cc3nc4c(c(N5CCC6(CC5)OCCO6)n3n2)CCC4)c1, N#Cc1c(-c2cccnc2)c2c([nH]c1=O)-c1ccccc1OC2, Cc1ccc(N2C(=O)C3C(C2=O)N2CCCN2C3c2ccccc2)cc1C (centres undefined), Cc1ccc(NC(=O)CCc2c(C)nn(-c3ccc(N4CCOCC4)nn3)c2C)cc1C, COc1ccc(N2CCN(CCNS(=O)(=O)c3cccc4nsnc34)CC2)cc1, O=C(NC(=S)Nn1cnnc1)c1ccccc1Cl

Potency, active:
c1coc(-c2nc3ccccc3nc2-c2ccco2)c1 17.8 µM, C/C(=N\NC(=O)c1cc2ccccc2cc1O)c1ccc(C)o1 79.4 µM, Cc1cc(-c2nnc(SCC(=O)c3ccc4c(c3)OCCO4)o2)no1 39.8 µM, COc1cccc(CNS(=O)(=O)c2ccc(S(=O)(=O)N3CCCC3)cc2)c1 20 µM, Cc1ccc(N=C2NC(=O)/C(=C/c3cccs3)S2)cc1C 10 µM, Cn1c2ccccc2c(=O)c2ccc(C#Cc3ccccn3)cc21 25.1 µM, O=C(c1ccco1)N1CCN(C(=O)c2ccc(COc3ccc4c(c3)CCC4)o2)CC1 89.1 µM, COc1ccc(-c2noc(-c3ccc(N4CCN(c5ccccc5)CC4)c([N+](=O)[O-])c3)n2)cc1OC 89.1 µM, N#Cc1c(-c2ccco2)c2c([nH]c1=S)CCCC2 28.2 µM, O=C(O)C1Oc2cc3ccccc3cc2O1 7.94 µM, O=C(c1ccc2c(c1)N(Cc1cccc(F)c1)C(=O)c1ccccc1S2)N1CCOCC1 50.1 µM, COc1ccc(-c2ccc(SCC(=O)Nc3cccc(C(C)=O)c3)nn2)cc1OC 15.8 µM, Cc1cc(C(=O)COC(=O)c2cc(O)c3ccccc3c2O)c(C)n1CC1CCCO1 (centres undefined) 44.7 µM, Cc1ccc(-c2cc(C(=O)NCc3ccco3)c3ccccc3n2)o1 17.8 µM, Cc1ccc2c(=O)cc(C(=O)Nc3nc4ccc(Cl)cc4s3)oc2c1C 6.31 µM

Potency, inconclusive:
COc1ccc(C(NC(=O)/C=C\c2ccco2)c2ccc(OC)c(OC)c2)cc1 (centres undefined) 20 µM [inhibitor, full curve], COc1cccc(/C=N\Nc2nncc(-c3ccccc3)n2)c1 89.1 µM [inhibitor, single point], COc1ccccc1CNC(=O)CSc1ccc(-c2cccs2)nn1 79.4 µM [inhibitor, single point], COCCCn1c(=O)c2sccc2n2c(CCCC(=O)NCc3ccc(OC)cc3)nnc12 0.158 µM [inhibitor, full curve, poor fit], O=c1c(-c2ccco2)[n+]([O-])c2ccccc2n1OCc1ccccc1F 100 µM [inhibitor, single point], Cc1nc(-c2cccc(NC(=O)Nc3ccc([N+](=O)[O-])cc3)c2)no1 89.1 µM [inhibitor, single point], Cc1cc(C)nc(SCc2nnc(SCC(=O)Nc3ccccc3C)n2Cc2ccco2)n1 79.4 µM [inhibitor, partial curve], Cc1ccc2nc(N3CCN(Cc4nnnn4C4CCCC4)CC3)c(C#N)cc2c1 89.1 µM [inhibitor, single point], CC(Oc1ccccc1)C(=O)Nc1ccc(C(N)=O)cc1 (centres undefined) 8.91 µM [inhibitor, full curve], Cc1ccc(-n2nnnc2SCC(=O)c2cc(C)n(-c3cc(C)on3)c2C)cc1 0.316 µM [inhibitor, full curve], CCC(CO)Nc1nc2ccc(Cl)cc2c2ccccc12 (centres undefined) 14.1 µM [inhibitor, partial curve], CC(=O)Nc1ccc(C(=O)OCC(=O)Nc2ccccc2F)cc1 0.562 µM [inhibitor, full curve], CCCCNC(=O)C(C#N)c1nc2ccccc2nc1N1CCCC1 (centres undefined) 79.4 µM [inhibitor, single point], COc1ccc([C@]23Cc4cc(C#N)ccc4C(O2)c2c(c4ccc(OC)cc4oc2=O)O3)cc1 1.41 µM [inhibitor, partial curve], O=[N+]([O-])c1ccc(O)c(C=Nc2ccc3oc(Cc4ccc(Cl)cc4)nc3c2)c1 0.316 µM [inhibitor, full curve, poor fit], NC(=O)CSc1oc(-c2ccco2)nc1S(=O)(=O)c1ccc(Cl)cc1 15.8 µM [inhibitor, full curve, poor fit], COc1ccc([C@]23Cc4ccccc4C(O2)c2c(cc(C)n(Cc4ccccc4)c2=O)O3)cc1 0.251 µM [inhibitor, full curve], N#C/C(=C\c1cn(Cc2ccc(F)cc2)c2ccccc12)C(=O)NCc1ccco1 20 µM [inhibitor, full curve], Oc1ccc(-c2nc3ncccn3c2Nc2ccc3c(c2)OCO3)cc1 0.316 µM [inhibitor, partial curve, poor fit], Cc1cccc(NC(=O)CN2CCN(C(=O)C3CCCO3)CC2)c1C (centres undefined) 0.562 µM [inhibitor, single point], Cc1cc(NC(=O)CSc2ccc3ccccc3c2)no1 28.2 µM [inhibitor, full curve], CC1CCC/C(=N\NC(=O)COc2ccc(Cl)cc2Cl)C1 (centres undefined) 2.24 µM [inhibitor, full curve, poor fit], COc1cc(CNc2ccc3c(c2)OCCO3)ccc1OCC(N)=O 79.4 µM [inhibitor, single point], O=C(CSc1nncn2c1cc1sccc12)Nc1ccc(Br)cc1F 25.1 µM [inhibitor, full curve], CCOc1ccc(NCc2cc3c(C(C)(C)C)nn(-c4ccccc4)c3[nH]c2=O)cc1 50.1 µM [inhibitor, partial curve], N#Cc1cccc(Nc2c3c(nc4ccccc24)CCCC3)c1 89.1 µM [inhibitor, single point], S=C(NCCc1c[nH]c2ccccc12)NC1CCCC1 39.8 µM [inhibitor, full curve, poor fit], N#Cc1cc(Oc2ccccc2)c(-n2nnc3ccccc32)cc1C#N 3.98 µM [inhibitor, single point], Cc1ccc(S(C)(=O)=N/C=C2\C(=O)c3sccc3N(C)S2(=O)=O)cc1 (centres undefined) 12.6 µM [inhibitor, partial curve, poor fit], CCCc1nc2c(=O)n(C)c(=O)nc-2n(C)n1 50.1 µM [inhibitor, partial curve], Cc1scc(C(=O)N/N=C/c2ccc([N+](=O)[O-])o2)c1C 0.631 µM [inhibitor, full curve, poor fit], CSc1ccccc1Sc1cc(C(=O)O)c2ccccc2n1 79.4 µM [inhibitor, single point], CCCNCC1COc2ccccc2O1 (centres undefined) 22.4 µM [inhibitor, full curve], Cc1ccc2oc(-c3cccc(NC(=O)c4cc(-n5cnnc5)ccc4Cl)c3)nc2c1 8.91 µM [inhibitor, full curve], Clc1ccc(/C=N/Nc2ncnc3ccccc23)cc1Cl 11.2 µM [inhibitor, single point], COc1ccccc1C1CC(c2cccc(NS(C)(=O)=O)c2)=NN1S(=O)(=O)c1ccccc1 (centres undefined) 39.8 µM [inhibitor, single point], O=C(/C=C/c1ccc(O)c(O)c1)c1ccc(S(=O)(=O)N2CCCCCC2)cc1 1.78 µM [inhibitor, full curve, poor fit], Cc1ccc2nc(SCC(=O)N/N=C/c3ccc(C(=O)O)cc3)cc(C)c2c1 22.4 µM [inhibitor, full curve], CN(C)c1ccc(C(=O)c2ccc(N(C)C)c3ccccc23)cc1 89.1 µM [inhibitor, single point], O=C(OCC(=O)c1ccc(Cl)s1)c1ccc2ccccc2n1 25.1 µM [inhibitor, partial curve, poor fit], Cc1cccc(-n2c(O)c(C=Nc3cc(O)ccc3C)c3ccccc3c2=O)n1 12.6 µM [inhibitor, partial curve], COc1ccc(-c2csc(N3CCN(S(=O)(=O)c4ccc5c(c4)NC(=O)CO5)CC3)n2)cc1 2.82 µM [inhibitor, single point], CCOC(=O)c1c(C)[nH]c(C)c1S(=O)(=O)N(C)CC(=O)N1CCN(c2ccccc2)CC1 70.8 µM [inhibitor, single point], CN1CCN(C(=O)c2ccc(-c3ccccc3)cc2)CC1 3.55 µM [inhibitor, single point]
